Source: PMC10276294, “Regulatory ligand binding in plant chalcone isomerase–like (CHIL) proteins” (The Journal of Biological Chemistry, 2023)
No constants are given. Whether binding was seen depends on the method and setting. For some assays here: Binding can be weak; no strength is given. Tags and fused reporters may be left off the sequences shown.

Columns and labels:
[1] = biological target: T1, Strep-tagged chalcone synthase from Arabidopsis thaliana (strep-AtCHS) (Arabidopsis thaliana) (UniProt P13114); test: pull-down; 1 mg strep-tagged CHS on 0.3 ml StrepTactin Sepharose, 0.5 mg untagged CHIL; room temperature; 150 mM NaCl, 50 mM Tris pH 8.0, 2 mM DTT, 2% DMSO; without ligand, or with naringenin or naringenin chalcone (NC) at the reported concentrations; eluted with desthiobiotin, SDS-PAGE and native PAGE, densitometry; both purified
T1 sequence: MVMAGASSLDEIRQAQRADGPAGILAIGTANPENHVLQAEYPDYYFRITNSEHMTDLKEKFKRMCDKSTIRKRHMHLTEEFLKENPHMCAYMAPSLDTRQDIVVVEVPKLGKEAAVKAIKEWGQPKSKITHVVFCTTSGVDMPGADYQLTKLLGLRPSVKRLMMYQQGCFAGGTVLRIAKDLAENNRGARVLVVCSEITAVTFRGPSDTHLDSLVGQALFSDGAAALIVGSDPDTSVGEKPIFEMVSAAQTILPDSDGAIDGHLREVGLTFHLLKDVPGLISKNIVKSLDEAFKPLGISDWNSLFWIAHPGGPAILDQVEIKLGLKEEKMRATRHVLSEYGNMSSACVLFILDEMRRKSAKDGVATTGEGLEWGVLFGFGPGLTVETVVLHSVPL

[2] = biological target: T1, Strep-tagged chalcone synthase from Arabidopsis thaliana (strep-AtCHS) (Arabidopsis thaliana); test: pull-down; as a1, with 4.30 mM naringenin in binding and wash buffers (strep-AtCHS on StrepTactin Sepharose, untagged VvCHIL); both purified

Chalcone isomerase-like protein from Vitis vinifera (VvCHIL)
binding [1]: binds | binding [2]: no binding (only with 4.30 mM naringenin)
